Drawing on the supplement of paper PMC10735217, this text covers TEAD-luciferase reporter activity for 39 molecules.

SMILES strings stand for the structures. Structures can show the parent of a compound that is named as a salt. The list shows a part of the results. Repeats in this data set agree poorly, so a single value says little.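 In a drug-repurposing library screen, luminescence reads luciferase driven by eight TEAD-binding elements, stably integrated into human kidney-derived cells. Compounds scoring over five robust Z scores above the plate mean are called hits.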

This assay has as its system HEK293A TEAD-LUC reporter. The assay is described as follows: TEAD-luciferase reporter activity (YAP activation), robust Z score vs plate; higher = stronger YAP/TEAD activation. Particulars: 24 h.

With `COC1CCC(OC(=O)[C@@H]2C[C@@H]3c4cccc5c4c(cn5C(C)C)C[C@H]3N(C)C2)CC1` (stereo not given in full), the TEAD-luciferase reporter activity runs as follows: (compound concentration: 200 nM) inactive: -0.988; (compound concentration: 2 uM) inactive: -0.945; (compound concentration: 10 uM) inactive: 0.337.
Take `CN(C)C(C)(CO)Cc1ccc(Cl)c(Cl)c1` (stereo not given): the TEAD-luciferase reporter activity is inactive: 1.25 (compound concentration: 200 nM), inactive: -0.188 (compound concentration: 2 uM) and inactive: 3.62 (compound concentration: 10 uM).
Consider `CCCCCc1cc(O)c2c(c1)OC(C)(C)[C@@H]1CCC(C)=C[C@@H]21` [d9-Tetrahydrocannabinol solution], for which the TEAD-luciferase reporter activity is inactive: -1.11 (compound concentration: 200 nM) and inactive: 1.88 (compound concentration: 10 uM).
Regarding `C[C@]12N[C@H](Cc3ccccc31)c1ccccc12` [dizocilpine], the TEAD-luciferase reporter activity is, setting by setting: (compound concentration: 200 nM) inactive: -2.85; (compound concentration: 2 uM) inactive: -0.594; (compound concentration: 10 uM) inactive: -1.52.
Turning to `C=CCN1CC[C@]23c4c5ccc(O)c4O[C@H]2[C@@H](O)C=C[C@H]3[C@H]1C5` [Nalorphine hydrochloride], the TEAD-luciferase reporter activity was inactive: -2.07 (compound concentration: 200 nM) and inactive: 0.481 (compound concentration: 10 uM).
Take `NCC(CC(=O)O)c1ccc(Cl)cc1` (racemic) [(+-)-Baclofen]: the TEAD-luciferase reporter activity (compound concentration: 200 nM) is inactive: 0.4 and the TEAD-luciferase reporter activity (compound concentration: 10 uM) is inactive: -0.51.
Turning to `COc1ccc(CNc2cn[nH]c(=O)c2Cl)cc1OCC(=O)N1CCN(Cc2ccccc2)CC1`, the TEAD-luciferase reporter activity is inactive: -0.952 (compound concentration: 200 nM), inactive: 0.375 (compound concentration: 2 uM) and inactive: 3.94 (compound concentration: 10 uM).
On to `CNC(C)CC1CCCCC1` (stereo not given), for which the TEAD-luciferase reporter activity (compound concentration: 200 nM) is inactive: 0.187, the TEAD-luciferase reporter activity (compound concentration: 2 uM) was inactive: -0.967 and the TEAD-luciferase reporter activity (compound concentration: 10 uM) is inactive: 0.329.
`CCOC(=O)C(c1ccccc1)C1CCCCN1` (stereo not given) [Ethylphenidate]: the TEAD-luciferase reporter activity is, setting by setting: (compound concentration: 200 nM) inactive: 1.04; (compound concentration: 2 uM) inactive: -1.64; (compound concentration: 10 uM) inactive: 0.945.
Take `CN1CCC(C(=O)c2cccc(NC(=O)c3c(F)cc(F)cc3F)n2)CC1` [lasmiditan]: the TEAD-luciferase reporter activity is inactive: -1.33 (compound concentration: 200 nM), inactive: 2.66 (compound concentration: 2 uM) and inactive: -0.356 (compound concentration: 10 uM).
On the same counts, the results for `CC(=O)[C@H]1CC[C@H]2[C@@H]3CC[C@H]4C[C@@H](O)CC[C@]4(C)[C@H]3CC[C@]12C` [Sepranolone] are inactive: -0.381, inactive: -0.689 and inactive: 0.757.
For `O=C1CN2CCOC2(c2ccccc2F)c2cc(Cl)ccc2N1CCO` (stereo not given), the TEAD-luciferase reporter activity (compound concentration: 200 nM) was inactive: -0.989, the TEAD-luciferase reporter activity (compound concentration: 2 uM) is inactive: -1.59 and the TEAD-luciferase reporter activity (compound concentration: 10 uM) was active: 6.38.
As to `O=C1CN=C(c2ccccc2Cl)c2cc([N+](=O)[O-])ccc2N1` [Clonazepam], the TEAD-luciferase reporter activity is, setting by setting: (compound concentration: 200 nM) inactive: -2.44; (compound concentration: 10 uM) inactive: -0.73.
In the case of `O=C1NC2(CCCCC2)C(=O)N1CCN(CCCl)CCCl`, the TEAD-luciferase reporter activity runs as follows: (compound concentration: 200 nM) inactive: -1.21; (compound concentration: 2 uM) inactive: -0.658; (compound concentration: 10 uM) inactive: -1.32.
Consider `COc1cc2c(cc1OC)-c1c3c(cc4c1[C@H](C2)N(C)CC4)OCO3`, for which the TEAD-luciferase reporter activity is, setting by setting: (compound concentration: 200 nM) inactive: -0.169; (compound concentration: 2 uM) inactive: -0.37; (compound concentration: 10 uM) inactive: -0.985.
For `CS(=O)(=O)OCCN(CCCl)c1ccc(C(=O)O)cc1`, the TEAD-luciferase reporter activity (compound concentration: 200 nM) is inactive: 0.399, the TEAD-luciferase reporter activity (compound concentration: 2 uM) was inactive: -0.678 and the TEAD-luciferase reporter activity (compound concentration: 10 uM) was inactive: -1.82.
On the same counts, the results for `COc1ccc2c(c1)c(CCN(C)C)cn2S(=O)(=O)c1ccccc1` are inactive: -1.13, inactive: -1.26 and active: 5.54.
Regarding `C=CCN1C(=O)CN2CCOC2(c2ccccc2F)c2cc(Cl)ccc21` (stereo not given), the TEAD-luciferase reporter activity (compound concentration: 200 nM) is inactive: -0.235, the TEAD-luciferase reporter activity (compound concentration: 2 uM) is inactive: -1.42 and the TEAD-luciferase reporter activity (compound concentration: 10 uM) is inactive: 0.559.
On the same counts, the results for `C[C@@H]1CC[C@H](C(O)C(F)(F)F)N1c1ccc2[nH]c(=O)cc(C(F)(F)F)c2c1` (stereo not given in full) are inactive: -0.724, inactive: 0.577 and inactive: 3.29.
On the same counts, the results for `Fc1ccc(C2=CCN(CCCCn3cncn3)CC2)cc1` are inactive: -1.68, inactive: -0.543 and inactive: 2.81.
`CO[C@@H]1[C@H](OC(=O)NC(=O)CCl)CC[C@]2(CO2)[C@H]1[C@@]1(C)O[C@@H]1CC=C(C)C`: the TEAD-luciferase reporter activity was inactive: -1.5 (compound concentration: 200 nM), inactive: -1.03 (compound concentration: 2 uM) and inactive: 0.773 (compound concentration: 10 uM).
With `Cc1cccc(Cc2c[nH]cn2)c1C` [Detomidine HCl], the TEAD-luciferase reporter activity was inactive: 0.898 (compound concentration: 200 nM) and inactive: -0.505 (compound concentration: 10 uM).
For `Cc1cccc(Cc2c[nH]cn2)c1C`, for the setting “compound concentration: 2 uM”, the TEAD-luciferase reporter activity was inactive: -0.684.
Take `Cc1cccc(Cc2c[nH]cn2)c1C` [Detomidine hydrochloride]: the TEAD-luciferase reporter activity (compound concentration: 2 uM) is inactive: -0.985.
For `C=CC[C@]1(O)CC[C@H]2[C@@H]3CCC4=CCCC[C@@H]4[C@H]3CC[C@@]21C`, the TEAD-luciferase reporter activity was inactive: -1.45 (compound concentration: 200 nM), inactive: -0.583 (compound concentration: 2 uM) and inactive: 0.808 (compound concentration: 10 uM).
Take `CN(C(=O)Cc1cccc([N+](=O)[O-])c1)[C@H]1c2ccccc2C[C@@H]1N1CCCC1` [Niravoline]: the TEAD-luciferase reporter activity (compound concentration: 200 nM) was inactive: -0.701, the TEAD-luciferase reporter activity (compound concentration: 2 uM) was inactive: -0.761 and the TEAD-luciferase reporter activity (compound concentration: 10 uM) is inactive: -1.09.
Turning to `CNC(C)C(O)c1ccccc1` (stereo not given) [ephedrine hydrochloride inj,D], the TEAD-luciferase reporter activity reads like this: (compound concentration: 200 nM) inactive: 0.118; (compound concentration: 10 uM) inactive: -0.641.
On to `CNC(C)C(O)c1ccccc1` (stereo not given) [ephedrine hydrochloride inj], for which the TEAD-luciferase reporter activity (compound concentration: 2 uM) was inactive: -0.89.
Regarding `O=c1n(Cl)c(=O)n(Cl)c(=O)n1Cl`, the TEAD-luciferase reporter activity is, setting by setting: (compound concentration: 200 nM) inactive: -1.13; (compound concentration: 2 uM) inactive: 0.0791; (compound concentration: 10 uM) inactive: 0.714.
With `CC(Cc1ccccc1)NCc1ccccc1Cl` (stereo not given), the TEAD-luciferase reporter activity runs as follows: (compound concentration: 200 nM) inactive: 0.378; (compound concentration: 2 uM) inactive: 0.726; (compound concentration: 10 uM) inactive: 3.03.
With `O=[N+]([O-])OCc1cccc(Cl)n1`, the TEAD-luciferase reporter activity runs as follows: (compound concentration: 200 nM) inactive: 0.331; (compound concentration: 2 uM) inactive: -1.75; (compound concentration: 10 uM) inactive: 0.113.
In the case of `CN(C)C[C@@H]1CCCC[C@H]1c1cccc(O)c1`, the TEAD-luciferase reporter activity was inactive: -0.444 (compound concentration: 200 nM), inactive: -0.288 (compound concentration: 2 uM) and inactive: 0.15 (compound concentration: 10 uM).
For the molecule `CCC1=CC2C(C1)CC2(CN)CC(=O)O` (stereo not given) [mirogabalin], the TEAD-luciferase reporter activity is, setting by setting: (compound concentration: 200 nM) inactive: -0.429; (compound concentration: 2 uM) inactive: -0.0727; (compound concentration: 10 uM) inactive: 1.71.
On the same counts, the results for `O=C1N=C(NC2CC2)OC1c1ccccc1` (stereo not given) are inactive: 0.216, inactive: -0.0488 and inactive: -0.175.
Regarding `Cc1ccc(N2CCNCC2)c(S(=O)(=O)O)c1`, the TEAD-luciferase reporter activity (compound concentration: 200 nM) is inactive: 0.661, the TEAD-luciferase reporter activity (compound concentration: 2 uM) is inactive: 1.22 and the TEAD-luciferase reporter activity (compound concentration: 10 uM) is inactive: -0.558.
On the same counts, the results for `Clc1ccc2oc(C3CCNCC3)cc2c1` are active: 5.3, inactive: -1.22 and inactive: -1.44.
On to `OC(c1ccc(Cl)cc1)(c1ccc(Cl)cc1)C1CC1`, for which the TEAD-luciferase reporter activity is inactive: -0.376 (compound concentration: 200 nM), inactive: -1.42 (compound concentration: 2 uM) and inactive: 3.12 (compound concentration: 10 uM).
Taken in the same sequence, the figures for `C[C@]12CCC(=O)C=C1[C@@H]1C[C@@H]1[C@@H]1[C@@H]2CC[C@@]2(C)[C@H]1CC[C@@]2(O)CCC(=O)O` were inactive: -0.561, inactive: -0.184 and inactive: 1.14.
On to `CN1C2C[C@@H](OC(=O)c3c[nH]c4ccccc34)C[C@@H]1C1OC12` (stereo not given in full), for which the TEAD-luciferase reporter activity is, setting by setting: (compound concentration: 200 nM) inactive: -0.411; (compound concentration: 2 uM) inactive: -0.594; (compound concentration: 10 uM) inactive: -0.481.
